Results published in the supplement of paper PMC3334620.
Whole data set: some 33,000 sequences, median “E-score (-0.5 to 0.5)” near -0.015, cut for the highest 2% near 0.3. This is one part of the list.

Molecular target: T1, Abf1 (UniProt P14164)
T1 sequence: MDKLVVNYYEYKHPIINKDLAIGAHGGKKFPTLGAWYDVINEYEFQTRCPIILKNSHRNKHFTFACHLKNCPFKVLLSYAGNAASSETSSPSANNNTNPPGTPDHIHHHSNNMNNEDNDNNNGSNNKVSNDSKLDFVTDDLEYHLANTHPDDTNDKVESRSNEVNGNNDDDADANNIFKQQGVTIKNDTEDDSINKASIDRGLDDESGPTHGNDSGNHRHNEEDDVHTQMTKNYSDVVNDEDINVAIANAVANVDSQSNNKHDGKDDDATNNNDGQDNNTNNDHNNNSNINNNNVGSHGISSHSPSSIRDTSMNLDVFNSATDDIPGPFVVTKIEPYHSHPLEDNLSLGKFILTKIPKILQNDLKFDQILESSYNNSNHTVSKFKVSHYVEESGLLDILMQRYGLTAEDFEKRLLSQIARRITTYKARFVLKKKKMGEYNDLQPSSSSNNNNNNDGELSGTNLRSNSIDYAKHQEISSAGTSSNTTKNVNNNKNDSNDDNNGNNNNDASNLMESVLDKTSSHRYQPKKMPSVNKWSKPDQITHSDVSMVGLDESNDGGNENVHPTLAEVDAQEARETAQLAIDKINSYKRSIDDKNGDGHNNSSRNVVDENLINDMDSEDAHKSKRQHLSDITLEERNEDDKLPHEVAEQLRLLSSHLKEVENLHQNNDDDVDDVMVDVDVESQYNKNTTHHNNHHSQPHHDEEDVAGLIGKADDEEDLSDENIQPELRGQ
Experiment: PBM E-score (8-mer binding enrichment) (E-score (-0.5 to 0.5)); higher = stronger / more preferred TF binding
Conditions: protein concentration: 200 nM; construct: GST-full length
Method in brief: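 Using PURExpress in vitro transcription/translation, GST-tagged yeast transcription factors were made in full-length or DNA-binding-domain form. These were applied at about 100-200 nM to double-stranded universal all-10-mer Agilent arrays, and bound protein was detected with fluorescent anti-GST. Scans were normalised with masliner before the Universal PBM Analysis Suite assigned E-scores to ungapped eight-base words pooled with their reverse complements.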

For CGATGAAA, which “PBM E-score” value is on record?
Its value is 0.0986.

For AGTAAACG, which “PBM E-score” value is on record?
Its value is -0.0721.

Which “PBM E-score” value does the source give for AGATGCCT here?
The value was -0.0335.

How did the “PBM E-score” value turn out when CAAATCAC was run?
The value was 0.19.

With CATATGGG as the sequence, how does the “PBM E-score” value read?
Its value is -0.0673.

How did the “PBM E-score” value turn out when GCCGTCCC was run?
The value was 0.0981.

For CCGATTAA, which “PBM E-score” value is on record?
The value was 0.0259.

CCTCGGAC was tested. Which “PBM E-score” value did it give?
The value was 0.0883.

How did the “PBM E-score” value turn out when ACTCGACG was run?
The value was 0.146.

For GCCTCCGC, which “PBM E-score” value is on record?
Its value is -0.157.

Which “PBM E-score” value does the source give for GTCGCACA here?
Its value is 0.0377.

For GCGCCAAA, which “PBM E-score” value is on record?
Its value is -0.0122.

Which “PBM E-score” value does the source give for CATTGTCC here?
The value was -0.0554.

Which “PBM E-score” value does the source give for ACATCGTC here?
The value was 0.265.

How did the “PBM E-score” value turn out when AATACTTC was run?
The value was -0.0521.

CGTAACCC was tested. Which “PBM E-score” value did it give?
The value was -0.0596.

For GAGAGGTA, which “PBM E-score” value is on record?
The value was -0.176.

Which “PBM E-score” value does the source give for CAACTTTC here?
Its value is 0.0128.

With CGGTGCAG as the sequence, how does the “PBM E-score” value read?
Its value is -0.217.

How did the “PBM E-score” value turn out when ACCTCTAC was run?
Its value is -0.054.

For GGACCCCA, which “PBM E-score” value is on record?
Its value is -0.188.

How did the “PBM E-score” value turn out when GTTAACAA was run?
The value was 0.0224.

With CTCTTTGC as the sequence, how does the “PBM E-score” value read?
Its value is -0.061.

For AACAGTTC, which “PBM E-score” value is on record?
Its value is 0.00428.

GAAGAGAA was tested. Which “PBM E-score” value did it give?
Its value is -0.122.

For ATAGGAGC, which “PBM E-score” value is on record?
Its value is -0.122.

How did the “PBM E-score” value turn out when AATTTCGA was run?
Its value is 0.00012.

TATCTGAA was tested. Which “PBM E-score” value did it give?
Its value is -0.101.

With CTCGACCC as the sequence, how does the “PBM E-score” value read?
The value was -0.092.

Which “PBM E-score” value does the source give for AAGACGGA here?
Its value is 0.0735.

Which “PBM E-score” value does the source give for AAAAACCG here?
The value was -0.0664.

For TGCAGGAA, which “PBM E-score” value is on record?
Its value is -0.0683.

CCTAATTC was tested. Which “PBM E-score” value did it give?
The value was -0.0596.

Which “PBM E-score” value does the source give for ATAGGCTA here?
The value was -0.0067.

Which “PBM E-score” value does the source give for CTAGACAC here?
The value was -0.143.

Which “PBM E-score” value does the source give for GTAGATTA here?
The value was 0.201.

For TATTGGCA, which “PBM E-score” value is on record?
The value was -0.0397.

Which “PBM E-score” value does the source give for CACTAGGA here?
The value was -0.075.

For AAGCACTA, which “PBM E-score” value is on record?
The value was -0.0415.

AACTACGA was tested. Which “PBM E-score” value did it give?
The value was 0.134.

How did the “PBM E-score” value turn out when TCGCCCCA was run?
Its value is -0.236.

GCTCCTTA was tested. Which “PBM E-score” value did it give?
The value was -0.0155.

How did the “PBM E-score” value turn out when CCCGAGCC was run?
Its value is -0.299.

How did the “PBM E-score” value turn out when CTAACACA was run?
Its value is 0.113.

Which “PBM E-score” value does the source give for CCACTACC here?
The value was -0.14.

For CCTCCGAC, which “PBM E-score” value is on record?
Its value is -0.0947.

GGAGCGCC was tested. Which “PBM E-score” value did it give?
The value was -0.193.

With CTATTATA as the sequence, how does the “PBM E-score” value read?
The value was 0.106.

How did the “PBM E-score” value turn out when ATGTTAGA was run?
Its value is -0.125.

For AACAGGAA, which “PBM E-score” value is on record?
Its value is -0.103.

Which “PBM E-score” value does the source give for CCCAAATC here?
Its value is -0.0954.

With CCAGTCCA as the sequence, how does the “PBM E-score” value read?
The value was -0.264.

How did the “PBM E-score” value turn out when CATCTGTC was run?
The value was -0.101.

GTTTTAGA was tested. Which “PBM E-score” value did it give?
The value was -0.0262.

With CCTAAAGG as the sequence, how does the “PBM E-score” value read?
Its value is -0.0747.

With AGCTGCAG as the sequence, how does the “PBM E-score” value read?
Its value is -0.0291.

For ATCACTCG, which “PBM E-score” value is on record?
The value was 0.31.

CCAGGATC was tested. Which “PBM E-score” value did it give?
The value was -0.0256.

For AGCAGGTC, which “PBM E-score” value is on record?
Its value is -0.0558.

Which “PBM E-score” value does the source give for AGACTGCA here?
The value was -0.203.

Which “PBM E-score” value does the source give for ATACTGAG here?
Its value is 0.0553.

Which “PBM E-score” value does the source give for CATGTCAC here?
The value was 0.383.

For TCCCCCGA, which “PBM E-score” value is on record?
Its value is -0.14.

How did the “PBM E-score” value turn out when AAAGGTAC was run?
The value was -0.0107.

For AATCGATG, which “PBM E-score” value is on record?
The value was 0.206.

With CCAAAATA as the sequence, how does the “PBM E-score” value read?
Its value is 0.0483.

For ATGCGAAG, which “PBM E-score” value is on record?
Its value is 0.0583.

Which “PBM E-score” value does the source give for CCAGGAGG here?
Its value is -0.0751.

Which “PBM E-score” value does the source give for CAGGCCAG here?
Its value is -0.0334.

For GATGGTTA, which “PBM E-score” value is on record?
The value was 0.0953.

For CAGACAAG, which “PBM E-score” value is on record?
The value was -0.162.

AAATCGAA was tested. Which “PBM E-score” value did it give?
Its value is -0.15.

How did the “PBM E-score” value turn out when ATCCGAGG was run?
Its value is -0.111.

With AGGTTGCA as the sequence, how does the “PBM E-score” value read?
The value was 0.0718.

For ATTAGAAG, which “PBM E-score” value is on record?
Its value is -0.098.

For CAACAGAA, which “PBM E-score” value is on record?
The value was -0.152.

How did the “PBM E-score” value turn out when AAAGGGAA was run?
Its value is -0.0729.

With CTAAATGC as the sequence, how does the “PBM E-score” value read?
The value was 0.0632.

GGGGGAAA was tested. Which “PBM E-score” value did it give?
Its value is -0.367.

CGGGGTTC was tested. Which “PBM E-score” value did it give?
The value was -0.126.

Which “PBM E-score” value does the source give for CAAATACG here?
Its value is 0.164.

With AACGAATG as the sequence, how does the “PBM E-score” value read?
Its value is 0.188.

How did the “PBM E-score” value turn out when CAGTATAC was run?
The value was 0.159.

How did the “PBM E-score” value turn out when GAAAATAC was run?
Its value is 0.0265.

CGCCGAGC was tested. Which “PBM E-score” value did it give?
Its value is -0.0933.

CCTTGTGC was tested. Which “PBM E-score” value did it give?
Its value is -0.164.

Which “PBM E-score” value does the source give for GAGGTTAC here?
Its value is 0.0322.

CGTAGACA was tested. Which “PBM E-score” value did it give?
The value was 0.00659.

For TGCCCCAA, which “PBM E-score” value is on record?
Its value is 0.0225.

ATTCAGCA was tested. Which “PBM E-score” value did it give?
Its value is 0.0365.

For GGAGCCCC, which “PBM E-score” value is on record?
Its value is -0.293.

CAAAGAGC was tested. Which “PBM E-score” value did it give?
Its value is -0.0636.

Which “PBM E-score” value does the source give for CTTTTCAA here?
The value was 0.166.

Which “PBM E-score” value does the source give for CTGGTGGA here?
Its value is -0.0901.
